Measured values published in the supplement of paper PMC12823440, “Inhibitors supercharge kinase turnover through native proteolytic circuits” (Nature, 2025).
Counter-ions that a name gives are not always drawn. The list shows a part of the results. The calls rarely recur for the same compound in another form.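 In K562 cells expressing nanoluciferase-fused kinases, luminescence was recorded at 4 h intervals between 2 and 18 h, normalized as percent of control with DMSO at 100% and a positive control at 0%. A significant (2 sigma) signal drop marks a time point as decreased. The authors' rule for a hit is not shown and takes in more than the number of time points.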

Sequences of proteins named here, by UniProt entry; tags and fusion partners are left off. A change or cut given only in a name is not applied to a line headed by its entry.
UniProt P28482, whole entry: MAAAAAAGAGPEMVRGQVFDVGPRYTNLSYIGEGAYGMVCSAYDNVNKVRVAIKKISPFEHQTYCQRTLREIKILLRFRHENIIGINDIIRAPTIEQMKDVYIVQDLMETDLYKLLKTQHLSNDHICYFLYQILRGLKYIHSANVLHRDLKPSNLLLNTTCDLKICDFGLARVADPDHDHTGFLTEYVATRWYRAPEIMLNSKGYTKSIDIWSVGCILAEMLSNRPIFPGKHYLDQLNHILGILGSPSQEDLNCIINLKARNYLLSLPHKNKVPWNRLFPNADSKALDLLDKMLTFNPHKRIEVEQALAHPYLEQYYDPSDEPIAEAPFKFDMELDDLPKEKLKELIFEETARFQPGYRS
UniProt P31152, whole entry: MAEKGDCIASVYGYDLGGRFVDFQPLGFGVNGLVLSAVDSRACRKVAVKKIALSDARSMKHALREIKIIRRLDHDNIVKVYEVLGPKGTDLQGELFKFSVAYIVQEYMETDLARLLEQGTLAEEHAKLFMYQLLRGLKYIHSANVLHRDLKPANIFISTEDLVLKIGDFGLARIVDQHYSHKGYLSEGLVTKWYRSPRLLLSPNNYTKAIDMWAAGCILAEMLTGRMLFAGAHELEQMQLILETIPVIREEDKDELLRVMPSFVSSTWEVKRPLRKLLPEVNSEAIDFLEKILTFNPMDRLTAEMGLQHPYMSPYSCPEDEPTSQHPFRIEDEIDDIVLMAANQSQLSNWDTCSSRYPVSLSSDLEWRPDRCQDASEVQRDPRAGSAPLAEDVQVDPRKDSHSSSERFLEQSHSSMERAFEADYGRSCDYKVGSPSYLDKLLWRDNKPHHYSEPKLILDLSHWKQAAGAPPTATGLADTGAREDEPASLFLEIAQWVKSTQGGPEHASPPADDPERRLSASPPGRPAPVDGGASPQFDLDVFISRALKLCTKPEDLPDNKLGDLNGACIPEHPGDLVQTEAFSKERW
UniProt P49137, whole entry, looked up: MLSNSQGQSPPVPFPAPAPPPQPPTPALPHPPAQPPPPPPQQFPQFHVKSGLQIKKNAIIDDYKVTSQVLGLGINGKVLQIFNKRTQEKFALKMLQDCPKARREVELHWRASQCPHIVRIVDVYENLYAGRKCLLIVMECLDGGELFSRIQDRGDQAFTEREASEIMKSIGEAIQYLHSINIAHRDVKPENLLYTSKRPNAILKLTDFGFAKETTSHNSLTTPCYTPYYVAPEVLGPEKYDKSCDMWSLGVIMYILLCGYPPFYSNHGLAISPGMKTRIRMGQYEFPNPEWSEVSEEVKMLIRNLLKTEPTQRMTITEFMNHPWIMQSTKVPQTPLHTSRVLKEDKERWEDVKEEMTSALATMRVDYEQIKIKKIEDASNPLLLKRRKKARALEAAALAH
UniProt Q9BUB5: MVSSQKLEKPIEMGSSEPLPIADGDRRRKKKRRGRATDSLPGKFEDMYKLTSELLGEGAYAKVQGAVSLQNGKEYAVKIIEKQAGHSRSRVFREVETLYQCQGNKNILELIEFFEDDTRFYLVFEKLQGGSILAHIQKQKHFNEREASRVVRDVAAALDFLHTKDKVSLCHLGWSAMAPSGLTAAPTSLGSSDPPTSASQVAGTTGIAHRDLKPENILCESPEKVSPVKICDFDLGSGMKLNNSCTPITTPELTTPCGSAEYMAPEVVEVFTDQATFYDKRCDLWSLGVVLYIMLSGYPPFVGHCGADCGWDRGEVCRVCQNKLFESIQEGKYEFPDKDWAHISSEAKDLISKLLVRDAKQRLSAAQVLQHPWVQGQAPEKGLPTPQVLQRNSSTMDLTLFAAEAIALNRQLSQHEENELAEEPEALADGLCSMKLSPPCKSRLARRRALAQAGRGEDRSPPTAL
UniProt Q16620, whole entry, looked up: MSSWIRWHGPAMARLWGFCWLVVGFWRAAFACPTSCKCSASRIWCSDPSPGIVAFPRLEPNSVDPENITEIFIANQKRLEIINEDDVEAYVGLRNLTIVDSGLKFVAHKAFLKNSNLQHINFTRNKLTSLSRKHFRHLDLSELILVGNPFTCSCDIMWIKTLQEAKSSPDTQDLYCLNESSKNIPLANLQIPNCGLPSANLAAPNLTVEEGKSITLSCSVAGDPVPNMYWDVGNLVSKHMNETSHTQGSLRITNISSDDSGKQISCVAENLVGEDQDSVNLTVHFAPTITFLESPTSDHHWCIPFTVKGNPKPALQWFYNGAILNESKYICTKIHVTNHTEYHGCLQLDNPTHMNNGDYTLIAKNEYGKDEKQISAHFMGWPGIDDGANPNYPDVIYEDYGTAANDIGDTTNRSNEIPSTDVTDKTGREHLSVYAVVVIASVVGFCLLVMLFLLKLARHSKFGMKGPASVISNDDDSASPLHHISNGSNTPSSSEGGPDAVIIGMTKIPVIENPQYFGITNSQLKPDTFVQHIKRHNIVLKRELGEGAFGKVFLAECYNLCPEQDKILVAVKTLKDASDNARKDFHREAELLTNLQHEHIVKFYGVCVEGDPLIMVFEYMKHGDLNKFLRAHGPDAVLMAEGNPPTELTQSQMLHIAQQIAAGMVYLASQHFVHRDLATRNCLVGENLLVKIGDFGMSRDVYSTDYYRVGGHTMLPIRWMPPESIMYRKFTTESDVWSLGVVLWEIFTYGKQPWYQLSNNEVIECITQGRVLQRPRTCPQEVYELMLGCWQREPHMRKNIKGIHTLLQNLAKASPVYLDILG
UniProt Q16288, whole entry, looked up: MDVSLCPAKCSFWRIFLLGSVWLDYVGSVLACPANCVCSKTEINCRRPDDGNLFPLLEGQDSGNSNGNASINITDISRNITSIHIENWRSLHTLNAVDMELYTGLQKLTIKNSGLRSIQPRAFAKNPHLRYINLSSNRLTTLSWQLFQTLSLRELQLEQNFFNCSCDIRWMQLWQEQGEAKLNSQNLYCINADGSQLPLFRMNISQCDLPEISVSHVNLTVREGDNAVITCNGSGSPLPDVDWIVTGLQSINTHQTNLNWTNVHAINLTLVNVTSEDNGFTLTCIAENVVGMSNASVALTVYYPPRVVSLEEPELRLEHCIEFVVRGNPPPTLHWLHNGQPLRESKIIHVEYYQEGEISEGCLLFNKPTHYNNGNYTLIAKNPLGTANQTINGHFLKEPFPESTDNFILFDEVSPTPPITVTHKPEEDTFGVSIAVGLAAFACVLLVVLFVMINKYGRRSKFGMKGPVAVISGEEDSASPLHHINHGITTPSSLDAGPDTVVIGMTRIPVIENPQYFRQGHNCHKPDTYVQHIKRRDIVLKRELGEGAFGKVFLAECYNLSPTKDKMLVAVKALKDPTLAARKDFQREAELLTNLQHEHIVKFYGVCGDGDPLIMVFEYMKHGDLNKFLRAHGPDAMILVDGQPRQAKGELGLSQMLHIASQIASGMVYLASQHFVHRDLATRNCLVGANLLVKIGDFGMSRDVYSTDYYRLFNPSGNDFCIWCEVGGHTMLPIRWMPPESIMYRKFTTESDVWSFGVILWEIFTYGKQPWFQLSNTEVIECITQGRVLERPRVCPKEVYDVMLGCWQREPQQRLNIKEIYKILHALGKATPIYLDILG
UniProt O96013: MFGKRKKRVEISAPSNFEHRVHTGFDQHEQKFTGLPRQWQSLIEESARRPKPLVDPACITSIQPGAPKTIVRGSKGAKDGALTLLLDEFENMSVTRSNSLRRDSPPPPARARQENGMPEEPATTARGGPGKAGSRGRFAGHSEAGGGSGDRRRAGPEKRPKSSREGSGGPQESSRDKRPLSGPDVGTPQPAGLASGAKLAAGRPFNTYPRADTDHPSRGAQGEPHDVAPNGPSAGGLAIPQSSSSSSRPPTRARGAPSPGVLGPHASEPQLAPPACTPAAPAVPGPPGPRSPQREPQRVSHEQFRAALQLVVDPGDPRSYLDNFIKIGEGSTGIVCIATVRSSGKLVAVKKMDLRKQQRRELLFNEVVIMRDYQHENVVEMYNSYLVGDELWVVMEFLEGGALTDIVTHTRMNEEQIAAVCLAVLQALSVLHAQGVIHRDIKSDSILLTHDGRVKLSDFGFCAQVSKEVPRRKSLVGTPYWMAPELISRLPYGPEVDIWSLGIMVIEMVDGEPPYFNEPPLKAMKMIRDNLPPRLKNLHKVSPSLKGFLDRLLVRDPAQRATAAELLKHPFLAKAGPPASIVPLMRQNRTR
UniProt Q96KB5: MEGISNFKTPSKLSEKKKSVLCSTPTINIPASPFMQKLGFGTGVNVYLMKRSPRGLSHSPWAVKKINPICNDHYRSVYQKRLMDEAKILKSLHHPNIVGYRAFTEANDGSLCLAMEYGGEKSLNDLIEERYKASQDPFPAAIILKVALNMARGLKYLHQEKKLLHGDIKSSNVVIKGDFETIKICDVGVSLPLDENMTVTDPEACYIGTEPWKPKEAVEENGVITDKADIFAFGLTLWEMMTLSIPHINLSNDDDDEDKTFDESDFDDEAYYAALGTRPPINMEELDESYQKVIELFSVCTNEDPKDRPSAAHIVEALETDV
UniProt P09619, whole entry: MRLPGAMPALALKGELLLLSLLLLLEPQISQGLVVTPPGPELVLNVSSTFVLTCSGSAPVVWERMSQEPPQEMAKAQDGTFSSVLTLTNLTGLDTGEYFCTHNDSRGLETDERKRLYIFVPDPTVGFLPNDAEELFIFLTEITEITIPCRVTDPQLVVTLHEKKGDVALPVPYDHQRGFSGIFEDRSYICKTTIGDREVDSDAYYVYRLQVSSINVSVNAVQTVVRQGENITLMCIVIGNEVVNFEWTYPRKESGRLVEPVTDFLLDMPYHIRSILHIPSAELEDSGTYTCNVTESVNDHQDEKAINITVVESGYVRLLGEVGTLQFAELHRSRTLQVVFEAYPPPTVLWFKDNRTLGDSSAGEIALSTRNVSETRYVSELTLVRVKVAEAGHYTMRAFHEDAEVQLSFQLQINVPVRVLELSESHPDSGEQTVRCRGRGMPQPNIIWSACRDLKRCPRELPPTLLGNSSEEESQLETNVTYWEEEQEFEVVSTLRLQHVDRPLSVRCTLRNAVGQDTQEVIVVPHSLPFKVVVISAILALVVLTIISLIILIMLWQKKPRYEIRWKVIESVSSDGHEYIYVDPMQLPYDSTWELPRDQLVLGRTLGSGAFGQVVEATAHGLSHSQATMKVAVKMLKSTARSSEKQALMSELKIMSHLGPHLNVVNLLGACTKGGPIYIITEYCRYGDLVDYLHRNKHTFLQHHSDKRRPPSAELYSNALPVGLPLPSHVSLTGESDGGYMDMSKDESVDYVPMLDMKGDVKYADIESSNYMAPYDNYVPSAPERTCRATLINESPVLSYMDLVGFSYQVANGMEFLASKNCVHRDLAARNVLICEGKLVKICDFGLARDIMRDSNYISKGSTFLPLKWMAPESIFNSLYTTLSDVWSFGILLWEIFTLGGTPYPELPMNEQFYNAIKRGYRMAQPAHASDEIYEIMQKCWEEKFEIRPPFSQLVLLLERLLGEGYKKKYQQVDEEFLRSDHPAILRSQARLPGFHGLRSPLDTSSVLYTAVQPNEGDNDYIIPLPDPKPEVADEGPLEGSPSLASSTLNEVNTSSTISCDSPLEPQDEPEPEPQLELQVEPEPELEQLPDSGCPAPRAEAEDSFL
UniProt Q15118, whole entry, looked up: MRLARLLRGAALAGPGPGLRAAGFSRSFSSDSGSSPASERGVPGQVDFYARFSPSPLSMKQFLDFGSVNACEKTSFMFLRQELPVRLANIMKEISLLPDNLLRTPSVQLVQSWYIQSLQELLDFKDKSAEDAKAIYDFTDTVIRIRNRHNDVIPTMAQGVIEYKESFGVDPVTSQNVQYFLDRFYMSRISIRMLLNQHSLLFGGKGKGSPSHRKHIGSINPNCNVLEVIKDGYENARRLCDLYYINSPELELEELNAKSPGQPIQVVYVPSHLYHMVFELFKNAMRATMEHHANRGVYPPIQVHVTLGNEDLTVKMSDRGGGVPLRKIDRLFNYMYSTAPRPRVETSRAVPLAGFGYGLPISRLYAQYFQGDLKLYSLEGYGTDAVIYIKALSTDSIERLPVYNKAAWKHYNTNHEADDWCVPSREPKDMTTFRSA

What was measured:
Assay in all cases: kinase-Nluc reporter destabilization hit call (1 = scored as downregulated) (binary); higher = compound decreases kinase abundance
Conditions in all cases: K562, 2-18 h
[1] = target: MAPK1 (UniProt P28482)
[2] = target: MAPK4 (UniProt P31152)
[3] = target: MAPKAPK2 (UniProt P49137)
[4] = target: MKNK1 (UniProt Q9BUB5)
[5] = target: NTRK2 (UniProt Q16620)
[6] = target: NTRK3 (UniProt Q16288)
[7] = target: PAK4 (UniProt O96013)
[8] = target: PBK (UniProt Q96KB5)
[9] = target: PDGFRB (UniProt P09619)
[10] = target: PDK1 (UniProt Q15118)

Measured: kinase-Nluc reporter destabilization hit call

CCCOc1ccc(C=C2SC(=O)NC2=O)cc1
inactive: [1]; 10 µM 0 | [2]; 10 µM 0 | [3]; 10 µM 0 | [4]; 10 µM 0 | [5]; 10 µM 0 | [6]; 10 µM 0 | [7]; 10 µM 0 | [8]; 10 µM 0 | [9]; 10 µM 0 | [10]; 10 µM 0

CC#CC(=O)N1CCC[C@H]1c1nc(-c2ccc(C(=O)Nc3ccccn3)cc2)c2c(N)nccn12 [Acalabrutinib]
inactive: [1]; 10 µM 0 | [2]; 10 µM 0 | [3]; 10 µM 0 | [4]; 10 µM 0 | [5]; 10 µM 0 | [6]; 10 µM 0 | [7]; 10 µM 0 | [8]; 10 µM 0 | [9]; 10 µM 0 | [10]; 10 µM 0

C=CC(=O)Nc1cc2c(Nc3ccc(F)c(Cl)c3)ncnc2cc1OCCCN1CCOCC1 [Canertinib]
inactive: [1]; 10 µM 0 | [2]; 10 µM 0 | [3]; 10 µM 0 | [4]; 10 µM 0 | [5]; 10 µM 0 | [6]; 10 µM 0 | [7]; 10 µM 0 | [8]; 10 µM 0 | [9]; 10 µM 0 | [10]; 10 µM 0

C=CC(=O)N1CCC([C@@H]2CCNc3c(C(N)=O)c(-c4ccc(Oc5ccccc5)cc4)nn32)CC1 [Zanubrutinib]
inactive: [1]; 10 µM 0 | [2]; 10 µM 0 | [3]; 10 µM 0 | [4]; 10 µM 0 | [5]; 10 µM 0 | [6]; 10 µM 0 | [7]; 10 µM 0 | [8]; 10 µM 0 | [9]; 10 µM 0 | [10]; 10 µM 0

C=CC(=O)N1C[C@@H](Nc2ncnc3[nH]ccc23)CC[C@H]1C [(2R,5S)-Ritlecitinib]
inactive: [1]; 10 µM 0 | [2]; 10 µM 0 | [3]; 10 µM 0 | [4]; 10 µM 0 | [5]; 10 µM 0 | [6]; 10 µM 0 | [7]; 10 µM 0 | [8]; 10 µM 0 | [9]; 10 µM 0 | [10]; 10 µM 0

C=CC(=O)Nc1cc2c(Nc3ccc(F)c(Cl)c3)ncnc2cc1OCCCN1CCOCC1 [Canertinib (dihydrochloride)]
inactive: [1]; 2.5 µM 0 | [2]; 2.5 µM 0 | [3]; 2.5 µM 0 | [4]; 2.5 µM 0 | [5]; 2.5 µM 0 | [6]; 2.5 µM 0 | [7]; 2.5 µM 0 | [8]; 2.5 µM 0 | [9]; 2.5 µM 0 | [10]; 2.5 µM 0

CC(C)[C@@](C)(O)[C@@H]1CN(c2nc(-c3[nH]nc4ncccc34)c(F)cc2Cl)CCN1
inactive: [1]; 10 µM 0 | [2]; 10 µM 0 | [3]; 10 µM 0 | [4]; 10 µM 0 | [5]; 10 µM 0 | [6]; 10 µM 0 | [7]; 10 µM 0 | [8]; 10 µM 0 | [9]; 10 µM 0 | [10]; 10 µM 0

O=C(Nc1cccc(Nc2nccc(Nc3cccc(C(F)(F)F)c3)n2)c1)C1CC1 [Aurora kinase inhibitor-3]
inactive: [1]; 2.5 µM 0 | [2]; 2.5 µM 0 | [3]; 2.5 µM 0 | [4]; 2.5 µM 0 | [5]; 2.5 µM 0 | [6]; 2.5 µM 0 | [7]; 2.5 µM 0 | [8]; 2.5 µM 0 | [9]; 2.5 µM 0 | [10]; 2.5 µM 0

CCCCCC1CC1CC1CC1CCCCCCCC(=O)OC (configuration not stated)
inactive: [1]; 10 µM 0 | [2]; 10 µM 0 | [3]; 10 µM 0 | [4]; 10 µM 0 | [5]; 10 µM 0 | [6]; 10 µM 0 | [7]; 10 µM 0 | [8]; 10 µM 0 | [9]; 10 µM 0 | [10]; 10 µM 0

C=CC(=O)N(C)CCOc1c(N)ncnc1-c1cc(F)cc(NC(=O)c2ccc(C3CC3)cc2F)c1C [Remibrutinib]
inactive: [1]; 10 µM 0 | [2]; 10 µM 0 | [3]; 10 µM 0 | [4]; 10 µM 0 | [5]; 10 µM 0 | [6]; 10 µM 0 | [7]; 10 µM 0 | [8]; 10 µM 0 | [9]; 10 µM 0 | [10]; 10 µM 0

CNC(=O)c1cc(Oc2ccc(NC(=O)Nc3ccc(Cl)c(C(F)(F)F)c3)cc2)ccn1 [Sorafenib (Tosylate)]
inactive: [1]; 10 µM 0 | [2]; 10 µM 0 | [3]; 10 µM 0 | [4]; 10 µM 0 | [5]; 10 µM 0 | [7]; 10 µM 0 | [8]; 10 µM 0 | [9]; 10 µM 0 | [10]; 10 µM 0

2 neighbouring records out of the list so far, quoted:
C=CC(=O)N1CCC([C@@H]2CCNc3c(C(N)=O)c(-c4ccc(Oc5ccccc5)cc4)nn32)CC1 [Zanubrutinib]
inactive: [1]; 10 µM 0 | [2]; 10 µM 0 | [3]; 10 µM 0 | [4]; 10 µM 0 | [5]; 10 µM 0 | [6]; 10 µM 0 | [7]; 10 µM 0 | [8]; 10 µM 0 | [9]; 10 µM 0 | [10]; 10 µM 0

C=CC(=O)N1C[C@@H](Nc2ncnc3[nH]ccc23)CC[C@H]1C [(2R,5S)-Ritlecitinib]
inactive: [1]; 10 µM 0 | [2]; 10 µM 0 | [3]; 10 µM 0 | [4]; 10 µM 0 | [5]; 10 µM 0 | [6]; 10 µM 0 | [7]; 10 µM 0 | [8]; 10 µM 0 | [9]; 10 µM 0 | [10]; 10 µM 0

Further results.

CCOc1cc2ncc(C#N)c(Nc3ccc(F)c(Cl)c3)c2cc1NC(=O)/C=C/CN(C)C [Pelitinib]
inactive: [1]; 2.5 µM 0 | [2]; 2.5 µM 0 | [3]; 2.5 µM 0 | [4]; 2.5 µM 0 | [5]; 2.5 µM 0 | [6]; 2.5 µM 0 | [7]; 2.5 µM 0 | [8]; 2.5 µM 0 | [9]; 2.5 µM 0 | [10]; 2.5 µM 0

Cc1cnc(Nc2ccc(OCCN3CCCC3)cc2)nc1Nc1cccc(S(=O)(=O)NC(C)(C)C)c1 [Fedratinib (hydrochloride hydrate)]
inactive: [1]; 2.5 µM 0 | [2]; 2.5 µM 0 | [3]; 2.5 µM 0 | [4]; 2.5 µM 0 | [5]; 2.5 µM 0 | [7]; 2.5 µM 0 | [8]; 2.5 µM 0 | [9]; 2.5 µM 0 | [10]; 2.5 µM 0

Cc1cc(Nc2cc(N3CCN(C)CC3)nc(/C=C/c3ccccc3)n2)n[nH]1
inactive: [1]; 2.5 µM 0 | [2]; 2.5 µM 0 | [3]; 2.5 µM 0 | [4]; 2.5 µM 0 | [5]; 2.5 µM 0 | [6]; 2.5 µM 0 | [7]; 2.5 µM 0 | [8]; 2.5 µM 0 | [10]; 2.5 µM 0

Cc1cc2c(F)c(Oc3ncnn4cc(OC[C@@H](C)O)c(C)c34)ccc2[nH]1 [Brivanib]
inactive: [1]; 10 µM 0 | [2]; 10 µM 0 | [3]; 10 µM 0 | [4]; 10 µM 0 | [5]; 10 µM 0 | [6]; 10 µM 0 | [7]; 10 µM 0 | [8]; 10 µM 0 | [9]; 10 µM 0 | [10]; 10 µM 0
